According to patent publication US20250241944A1 (CALIFORNIA INSTITUTE OF TECHNOLOGY, priority 2023, published 2025):
Some results were stated once for a whole list of compounds, not compound by compound.

Tested on: WT Pseudomonas aeruginosa UCBPP-PA14
Experiment: Antibiotic treatment assay with viable plate counts (percent survival / log killing)
Settings: oxic conditions (vigorous shaking), 24 h, OD500=2; tobramycin 31.25 μg/mL, ciprofloxacin 1 μg/mL

Q: With `O=C(O)c1cn(C2CC2)c2cc(N3CCNCC3)c(F)cc2c1=O` [ciprofloxacin] as the compound, how does the log killing read?
A: > 6 log
